According to PubChem BioAssay AID256 (DTP/NCI, 2004):
The list shows only some results of the screen, not a fair sample: it is rich in T/C values a quarter to a half above the control, in often repeated tests (any T/C) and in doses without a T/C. Further doses and runs are listed elsewhere. T/C gives the treated animals as a percentage of the vehicle group. Some entries give survivors of the animals treated and no T/C: the source files T/C as zero there, which appears to mark a toxic dose or a test without result, not a measured value. Some doses without a T/C left all or most animals alive at the check, yet need not have been tolerated: survival well below the control is almost never listed, so the zero probably covers shortened survival too. Counts of survivors are from the toxicity check (mostly the fifth day) where no day follows; animals may have died later. Schedule codes are those of the source, read here as Q, the interval in days (D) or hours (H), X, the number of doses. For survival time, the PubChem record calls one and a half times the control and up active, and a quarter to a half above the control has no call in these data; cut-offs in other NCI protocols can differ. Some entries hold several experiments; the values are given in rising order. Some T/C values are followed by the survivors on the day toxicity was checked, most often the fifth; without a count, all were alive then.

System: CD2F1 mice, L1210 leukemia ip, survival T/C
Assay: NCI In Vivo Anticancer Drug Screen. Data for tumor model L1210 Leukemia (intraperitoneal) in CD2F1 (CDF1) mice
Conditions: higher T/C = longer survival
Procedure, shortened: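 Each value reflects a quotient of treated over vehicle control outcomes in mice with a transplanted tumor.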

[1] = T/C endpoint: mean survival time, dose: 25.0 mg/kg/injection, schedule: Q01DX001 (ip), vehicle: saline with Tween-80
[2] = T/C endpoint: mean survival time, dose: 100.0 mg/kg/injection, schedule: Q01DX001 (ip), vehicle: saline with Tween-80
[3] = T/C endpoint: mean survival time, dose: 200.0 mg/kg/injection, schedule: Q01DX001 (ip), vehicle: saline with Tween-80
[4] = T/C endpoint: mean survival time, dose: 400.0 mg/kg/injection, schedule: Q01DX001 (ip), vehicle: saline with Tween-80
[5] = T/C endpoint: mean survival time, dose: 200.0 mg/kg/injection, schedule: Q04DX003 (ip), vehicle: saline with Tween-80
[6] = T/C endpoint: mean survival time, dose: 400.0 mg/kg/injection, schedule: Q04DX003 (ip), vehicle: saline with Tween-80

SMILES: O=C(O)C(S(=O)(=O)O)S(=O)(=O)O
- survivor count (T/C endpoint: mean survival time, dose: 12.5 mg/kg/injection, schedule: Q01DX001 (ip), vehicle: saline with Tween-80): 3 of 3
- survivor count [1]: 3 of 3
- survivor count (T/C endpoint: mean survival time, dose: 50.0 mg/kg/injection, schedule: Q01DX001 (ip), vehicle: saline with Tween-80): 2 of 3
- survivor count [2]: 1 of 3
- survivor count [3]: 2 of 3
- survivor count [4]: 0 of 3

SMILES: C=CCNC(=O)C[n+]1cccc(C(=O)Nc2ccc(Cl)cc2)c1
- survivor count [5]: 0 of 6
- survivor count [6]: 0 of 6

SMILES: COc1ccc(NC(=O)Nc2cccc(Cl)c2)c(OC)c1
- survivor count (T/C endpoint: mean survival time, dose: 400.0 mg/kg/injection, schedule: Q04DX002 (ip), vehicle: saline with Tween-80): 3 of 3

SMILES: CS(=O)(=O)OCCC(=O)N1CCN(C(=O)CCOS(C)(=O)=O)CC1
- T/C (T/C endpoint: mean survival time, dose: 8.0 mg/kg/injection, schedule: Q03HX016 (ip), vehicle: saline): 139 % of control
- T/C (T/C endpoint: mean survival time, dose: 8.0 mg/kg/injection, schedule: Q03HX024 (ip), vehicle: saline): 149 % of control
- T/C (T/C endpoint: mean survival time, dose: 16.0 mg/kg/injection, schedule: Q01DX009 (ip), vehicle: saline): 134 % of control
- T/C (T/C endpoint: mean survival time, dose: 16.0 mg/kg/injection, schedule: Q03HX008 (ip), vehicle: saline): 143 % of control
- T/C (T/C endpoint: mean survival time, dose: 64.0 mg/kg/injection, schedule: Q01DX001 (ip), vehicle: saline): 125 % of control
- survivor count (T/C endpoint: mean survival time, dose: 64.0 mg/kg/injection, schedule: Q03HX008 (ip), vehicle: saline): 10 of 10
- survivor count (T/C endpoint: mean survival time, dose: 64.0 mg/kg/injection, schedule: Q03HX024 (ip), vehicle: saline): 10 of 10
- T/C (T/C endpoint: mean survival time, dose: 64.0 mg/kg/injection, schedule: Q04DX003 (ip), vehicle: saline): 147 % of control
- T/C (T/C endpoint: mean survival time, dose: 64.0 mg/kg/injection, schedule: Q08DX002 (ip), vehicle: saline): 135 % of control
- T/C (T/C endpoint: mean survival time, dose: 128.0 mg/kg/injection, schedule: Q01DX001 (ip), vehicle: saline): 146 % of control
- survivor count (T/C endpoint: mean survival time, dose: 256.0 mg/kg/injection, schedule: Q01DX009 (ip), vehicle: saline): 10 of 10
- survivor count (T/C endpoint: mean survival time, dose: 512.0 mg/kg/injection, schedule: Q08DX002 (ip), vehicle: saline): 9 of 10

SMILES: CC1CC(C)(O)CC(C(O)CC2CC(=O)NC(=O)C2)C1=O (stereo unspecified)
- T/C (T/C endpoint: mean survival time, dose: 0.32 mg/kg/injection, schedule: Q01DX009 (ip), vehicle: saline): 129 and 133 % of control

SMILES: CC(=O)OC1C(CO)OC2C1Oc1nc(=N)c(F)cn12 (stereo unspecified)
- T/C (T/C endpoint: mean survival time, dose: 50.0 mg/kg/injection, schedule: Q01DX009 (ip), vehicle: saline): 139 % of control

SMILES: c1ccc(C[n+]2cccc3ccccc32)cc1
- survivor count (T/C endpoint: mean survival time, dose: 100.0 mg/kg/injection, schedule: Q04DX003 (ip), vehicle: saline with Tween-80): 2 of 6
- survivor count [5]: 0 of 6
- survivor count [6]: 0 of 6

SMILES: O=C(O)C(O)C(O)C(OC1OC(CO)C(O)C(O)C1O)C(O)CO.O=C(O)C(O)C(O)C(OC1OC(CO)C(O)C(O)C1O)C(O)CO.[NH-]C1CCCCC1[NH-].[Pt+2] (stereo unspecified)
- T/C (T/C endpoint: median survival time, dose: 3.12 mg/kg/injection, schedule: Q04DX003 (ip), vehicle: saline): 134 % of control
- T/C (T/C endpoint: median survival time, dose: 6.25 mg/kg/injection, schedule: Q04DX003 (ip), vehicle: saline): 135 % of control
- T/C (T/C endpoint: median survival time, dose: 12.5 mg/kg/injection, schedule: Q04DX003 (ip), vehicle: saline): 125 % of control [5 of 6 alive]
- T/C (T/C endpoint: median survival time, dose: 25.0 mg/kg/injection, schedule: Q04DX003 (ip), vehicle: saline): 146 % of control
- survivor count (T/C endpoint: median survival time, dose: 200.0 mg/kg/injection, schedule: Q04DX003 (ip), vehicle: saline): 5 of 6

SMILES: C/C(Cl)=C/C(=O)O.[Ag]
- survivor count (T/C endpoint: mean survival time, dose: 150.0 mg/kg/injection, schedule: Q01DX001 (ip), vehicle: saline): 0 of 6
- survivor count (T/C endpoint: mean survival time, dose: 300.0 mg/kg/injection, schedule: Q01DX001 (ip), vehicle: saline): 0 of 6

SMILES: CC[PH+](CC)CC[S-].CC[PH+](CC)CC[S-].[Au+].[Au+]
- survivor count (T/C endpoint: mean survival time, dose: 40.0 mg/kg/injection, schedule: Q01DX009 (ip), vehicle: Klucel (hydroxypropylcellulose) (HPC)): 3 of 6
- survivor count (T/C endpoint: mean survival time, dose: 80.0 mg/kg/injection, schedule: Q01DX009 (ip), vehicle: Klucel (hydroxypropylcellulose) (HPC)): 0 of 6

SMILES: CC(=O)/C(=C\c1ccccc1)CNC1CCCCC1
- survivor count [1]: 0 of 3
- survivor count [2]: 0 of 3
- survivor count [3]: 0 of 3
- survivor count [4]: 0 of 3

SMILES: COc1ccc(OC)c(C2N(Cc3ccccc3N(C)C)CCCN2Cc2ccccc2N(C)C)c1
- survivor count [6]: 5 of 6

SMILES: C=CCNC(N)=O
- survivor count (T/C endpoint: mean survival time, dose: 400.0 mg/kg/injection, schedule: Q04DX003 (ip), vehicle: saline): 1 of 6
